We go through one sequence from PMC5300761.

Chains of the proteins cited; added tags and fusions are not shown.
UniProt O88477, whole entry: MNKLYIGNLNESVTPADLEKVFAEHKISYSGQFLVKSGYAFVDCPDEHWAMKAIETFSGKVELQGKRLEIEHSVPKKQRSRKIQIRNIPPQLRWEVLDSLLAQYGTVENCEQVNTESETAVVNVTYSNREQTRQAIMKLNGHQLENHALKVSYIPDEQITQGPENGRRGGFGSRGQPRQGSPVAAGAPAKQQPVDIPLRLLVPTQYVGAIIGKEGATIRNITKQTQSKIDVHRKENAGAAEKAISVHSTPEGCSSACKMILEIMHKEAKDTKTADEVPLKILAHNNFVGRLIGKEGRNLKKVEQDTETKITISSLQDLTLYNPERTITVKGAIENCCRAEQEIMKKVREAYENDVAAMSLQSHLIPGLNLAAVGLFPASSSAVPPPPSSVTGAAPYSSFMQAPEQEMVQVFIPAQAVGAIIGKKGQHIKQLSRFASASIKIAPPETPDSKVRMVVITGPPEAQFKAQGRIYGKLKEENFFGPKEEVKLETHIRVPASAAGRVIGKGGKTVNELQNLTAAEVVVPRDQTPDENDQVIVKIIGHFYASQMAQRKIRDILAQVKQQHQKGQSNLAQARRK

The exact form of at least one protein or probe is not confirmed.

Broadly, the Kd is the concentration at which binding is half-saturated.

The target of the series is CRD-BP WT (mouse) (UniProt O88477). Kind of series: EMSA. Particulars: 40 nM RNA; competitor preincubation 35 C); recombinant protein; label: 32P-UTP internal; probe letters rebuilt from the primers and the genome; part of a longer molecule.

For the sequence “AUUGUACAAAUAAGUGUGCAGUAUCUGUGAACUGAAUUCACCACAGACUUUAGCUUUCUGAGCAAGAGGAUUGAGAUUUUUAUGCCUGUGACUUCCUUGGAAAUCAAAUGUAAAGUUUAAUUGAAAGAAUGUAAAGCAACCA [MITF RNA 1550-1740 (del1621-1669)]”, the Kd turned out to be 970 nM.
